Screen size: about 410,000 compounds; about 18,000 (4.4%) were called active. Inconclusive means that the source gave no clear call. Such entries were picked first, then a sample of the others. Cut-off read from the data, not from the text of the source: active = activity change below about -60%; inconclusive = no clear call, values can overlap the other calls; inactive = above about -39%. A structure can be active in one record and inactive in another.
Experiment: qHTS Assay for inhibitors of the human cytomegalovirus (HCMV)
Settings: HFF cells, HCMV-luciferase reporter, 72 h; at 57.5 µM; hits give low values
Outline: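 Cell-based, HFFs, 1000 cells/well, 16 h 37C; cpds in DMSO + HCMV-luc, MOI 1 PFU/cell; 72 h 37C; OneGlo luminescence after 5 min RT; norm. to buffer vs Salinomycin 10uM.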
% is set by controls: 0 for no effect and ±100 for the full control effect.

| Compound | activity change, negative = inhibition |
| --- | --- |
| CC(C)Cn1nnc2c(=O)oc3ccccc3c21 | inactive: -6.59% |
| O=C(NCC(c1cccnc1)N1CCN(Cc2ccccc2)CC1)C(=O)Nc1ccc(F)cc1 (stereo not given) | inactive: -12.8% |
| O=C1CSC(=Nc2ccc(O)cc2)N1 | inactive: 24.7% |
| O=C(CN1C(=O)NC2(CCCC2)C1=O)Nc1ccc(S(=O)(=O)N2CCOCC2)cc1 | inconclusive: -50.5% |
| O=S(=O)(Nc1cc(Cl)ccc1-n1cncn1)c1cc(Br)ccc1Br | inconclusive: -56.9% |
| COC(=O)c1ccccc1NC(=O)CSc1c2c(nc3ccc(Cl)cc13)CCCC2 | inactive: -10.7% |
| O=C(N/N=C/c1ccc([N+](=O)[O-])o1)c1ccccc1-n1cccc1 | inconclusive: -58.6% |
| Cc1cccc(Cc2c(C)nc3c(C(=O)N4CCN(Cc5ccc6c(c5)OCO6)CC4)cnn3c2C)c1 | inconclusive: -43.1% |
| COc1cccc(CNC(=O)C2CCC(=O)N(CCc3cccc(F)c3)C2)c1 (stereo not given) | inconclusive: -48.1% |
| CCOC(=O)NNC1CC(=O)N(c2ccccc2)C1=O (stereo not given) | inactive: -2.5% |
| Cc1ccc(NC(=O)Nc2ccc([N+](=O)[O-])cc2)nc1 | active: -70% |
| COc1ccc(NC(=O)C(=O)NCCc2csc3nc(-c4ccccc4C)nn23)cc1 | inactive: -4.33% |
| c1ccc(CNC2CC3CCC2C3)cc1 (stereo not given) | inconclusive: -42.2% |
| O=C(CN1CCN(S(=O)(=O)c2ccc(Br)cc2)CC1)N/N=C/c1ccccc1C(=O)O | inconclusive: -43.3% |
| CC(NC(C)c1ccccc1Cl)C(=O)Nc1cccc(S(=O)(=O)N2CCCCC2)c1 (stereo not given) | inconclusive: -50% |
| CCCCN(c1ccccc1)S(=O)(=O)c1cc2c3c(c1)C(C)C(=O)N3CCC2 (stereo not given) | inconclusive: -49.9% |
| CCCC1=Nc2cc(C(=O)NCCN3CCCC3)ccc2Sc2ccccc21 | inconclusive: -59.9% |
| CC(=O)N(Cc1ccc(Br)cc1)c1cccc(C)c1C | inconclusive: -42.9% |
| Cc1cccc(NC(=O)c2cc3c(C)nn(-c4ccccc4)c3s2)c1 | inconclusive: -46.6% |
| CC(NC(=O)CNC(=S)N(Cc1ccccc1)Cc1cccnc1)c1ccccc1 (stereo not given) | inconclusive: -44.3% |
| Cc1ccc(C(C)C)c(OCCNC(=O)c2ccccc2O)c1 | inconclusive: -50.3% |
| Cc1ccnc(NC(=O)CCC(=O)N(CC(=O)NCCc2ccccc2)Cc2cccs2)c1 | inconclusive: -51.7% |
| COc1ccc(S(=O)(=O)Nc2cccc(C)c2C)c2cccnc12 | inconclusive: -50.1% |
| CCc1ccc(S(=O)(=O)Nc2ccc3oc(C)c(C(=O)OCCOC)c3c2)cc1 | inactive: 0.636% |
| CCOc1ccc2[nH]c(=O)c(CN(Cc3cccs3)Cc3nnnn3C(C)(C)CC)cc2c1 | inconclusive: -56.8% |
| CCOc1ccc(C(=O)N2CCc3ccccc32)cc1OCC | inactive: 77.3% |
| O=C1c2cccc(Sc3ccccc3)c2C(=O)c2c(Sc3ccccc3)cccc21 | inactive: 13.7% |
| Cc1ccccc1NC(=O)c1ccc(F)c(S(=O)(=O)N2CCN(c3ccccn3)CC2)c1 | inconclusive: -45.8% |

| Compound | activity change, negative = inhibition |
| --- | --- |
| CC(C)NC(=O)c1cc(C2CCCCN2C(=O)c2ccc(C#N)cc2)on1 (stereo not given) | inconclusive: -54.7% |
| COCCn1c(=S)[nH]c2cc(C(=O)N3CCc4ccccc43)ccc2c1=O | active: -69.9% |
| Cc1cccc(-c2nc3ccccc3c(=O)n2NC(=O)Cc2ccc(Cl)cc2)c1 | inconclusive: -51.7% |
| COc1ccccc1-n1c(CNc2ccc(F)cc2)nnc1SCC(=O)Nc1cc(C)on1 | inconclusive: -45.3% |
| CCOc1ccccc1NC(=O)C(c1ccccc1)N1CCN(CC(=O)N2CCCC2)CC1 (stereo not given) | inactive: 0.355% |
| O=C(/C=C/c1ccc(O)c([N+](=O)[O-])c1)c1ccc2ccccc2c1 | inconclusive: -47.7% |
| COc1ccc(/C=C2/SC(=S)N(CCCC(=O)N3CCN(C)CC3)C2=O)cc1 | active: -99.6% |
| OC1(C#CCN2CCCC2)c2ccccc2-c2ccccc21 | inactive: 32.1% |
| COc1ccc(Nc2cc(C)nc(-n3nc(C)cc3C)n2)cc1 | active: -84.3% |
| COC(=O)CSc1nc2cc(C)cc(C)c2cc1C#N | inconclusive: -50.4% |
| COc1ccc(-n2c(-c3ccc(Br)cc3)c[n+]3c2CCCCC3)cc1 | active: -87.3% |
| OC(COc1ccc(F)cc1Cl)CN1CCC(Cc2ccccc2)CC1 (stereo not given) | inconclusive: -58% |
| CCC(C)(C)NC(=O)C(c1ccc(C)cc1)N(CC1CCCO1)C(=O)CCC(=O)Nc1ccccn1 (stereo not given) | inconclusive: -53.6% |
| Cc1cccc(C)c1NC(=O)c1cc2sccc2n1Cc1ccc(F)cc1 | inconclusive: -52.8% |
| CC(C)(C)OC(=O)NCc1ccc(CNC(=O)c2[nH]cnc2C(=O)N[C@@H](Cc2ccccc2)C(=O)OCc2ccccc2)cc1 | inactive: 38.2% |
| O=S(=O)(NCc1ccccc1)c1cccc(S(=O)(=O)N2CCOCC2)c1 | inconclusive: -42% |
| CSc1nc(NCc2ccco2)c2ccccc2n1 | inconclusive: -49.2% |
| O=C(CCc1nc(-c2ccccc2F)no1)NCCN1CCN(Cc2ccccc2)CC1 | inconclusive: -53.3% |
| COc1ccc(N(C)S(=O)(=O)c2ccc(Cl)c(C(=O)NCC(C)(C)N3CCOCC3)c2)cc1 | inconclusive: -55.2% |
| CC1CN(C(=O)COC(=O)c2ccc3ncsc3c2)CC(C)O1 (stereo not given) | inconclusive: -44.3% |
| Cc1cccc(N2CCN(C(=O)C3CCC(=O)N(C4CC4)C3)CC2)c1C (stereo not given) | inactive: 0% |
| CN1CCC(=C2c3ccccc3CC(=O)c3sccc32)CC1 | inconclusive: -45% |
| O=C(CN1CCN(S(=O)(=O)c2cccs2)CC1)NCC1CCCCC1 | inactive: 2.53% |
| CNc1cncc(-c2c(OC)cccc2OC)n1 | active: -103% |
| CCC(=O)N(C1=C(NC(C)C)C(=O)c2ccccc2C1=O)C(C)C | inconclusive: -42.3% |
| Cc1cc(N)cc(C)c1-c1c(Br)cc(N)cc1Br | inconclusive: -42.8% |
| CCOc1cccc2sc(N(CCCN(C)C)C(=O)Cc3ccccc3)nc12 | inconclusive: -52.9% |

Two entries picked at random from the list so far:

| Compound | activity change, negative = inhibition |
| --- | --- |
| CCOc1ccc2[nH]c(=O)c(CN(Cc3cccs3)Cc3nnnn3C(C)(C)CC)cc2c1 | inconclusive: -56.8% |
| Cc1cccc(-c2nc3ccccc3c(=O)n2NC(=O)Cc2ccc(Cl)cc2)c1 | inconclusive: -51.7% |
